Assay [1] relates to MCF-7 cells (breast carcinoma cell line). Nature of the assay: MTT viability assay, MCF-7. To be noted: Homo sapiens, MCF7, 24 h. The format is cell-based. The method, then: (§1) The Cytotoxic activity was tested using the viability assay following the method reported by Mosmann, T., 1983 [21, 22]. HepG2 cells (liver carcinoma cell line), MCF-7cells (breast carcinoma cell line) and CACO2 cells (intestinal carcinoma cell line) (American Type Culture Collection ATCC, Rockville, MD) were applied through the tissue Culture Unit, the Egyptian Organization for Biological Products and Vaccines, Vacsera, Egypt. In brief, the tumor cell lines were suspended in medium at concentration 5 × 10^4 cell/ well in Corning® 96-well tissue culture plates and then incubated for 24 h. The alcoholic extract of F. cretica was then added into 96-well plates (three replicates) to achieve twelve concentrations. Six vehicle controls with media or 0.5% DMSO were run for each 96 well plate as a control. After incubating for 24 h, the number of viable cells was determined by the MTT test. Briefly, the media was removed from the 96 well plates and replaced with 100 µl of fresh culture RPMI 1640 medium without phenol red then 10 µl of the 12 mM MTT stock solution (5 mg of MTT in 1 ml of PBS) to each well including the untreated controls. […] Then, the optical density (OD) was measured at 590 nm with the microplate reader (SunRise, TECAN, Inc, USA) to determine the number of viable cells and the percentage of viability was calculated as follows: […]
On the technique in general: Tetrazolium dyes change colour on reduction, which living cells bring about.

The test system of assay [2] is HepG2 cells (liver carcinoma cell line). Kind of assay: MTT viability assay, HepG2. The format is cell-based. To be noted: Homo sapiens, 24 h. The method, then:
as §1

Values after ≈ are worked out from the molar mass of the structure shown.

`COc1cccc2c1C(=O)c1c(O)c3c(c(O)c1C2=O)C[C@@](O)(C(=O)CO)C[C@@H]3O[C@H]1C[C@H](N)[C@H](O)[C@H](C)O1` [Doxorubicin]: the IC50 in assay [1] turned out to be 9.15 ± 0.5 µg/mL (≈ 16.8 µM); in assay [2] it was 6.28 ± 0.4 µg/mL (≈ 11.6 µM).

What is called IC50 is the midpoint of a concentration-inhibition curve. Low readings indicate inhibition by little substance, high ones a need for much substance.
